{"source": "PubChem BioAssay AID686938 (Drosophila RNAi Screening Center, 2013)", "aim": "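Looking for CRAC channel components and the factors controlling them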 (primary screen)", "cells": "Drosophila S2R+ cells", "knock-down reagent": "long dsRNA against Drosophila genes, about 0.25 µg dsRNA per well, roughly 10,000 cells", "duration": "5 days of knock-down before the calcium assay", "treatment": "thapsigargin (SERCA pump blocker) to empty calcium stores; entry signal taken 4 min after adding it", "measurement": "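Duplicate raw fluo-4 intensities per well from a plate reader, at rest and four minutes after thapsigargin emptied calcium stores; entry-to-rest ratio filled for only some wells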", "direction": "calcium entry signal: higher = stronger calcium signal after store depletion; resting calcium signal: higher = higher resting calcium signal", "units": "calcium entry signal in fluorescence units; resting calcium signal in fluorescence units", "call rule": "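Hit if the duplicate-averaged plate z-score for entry over resting signal is under −3; wells with weak total dye signal (Fmax z < −2) or more than 5 off-targets removed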", "calls": "active = strongly reduced calcium entry; inactive = no strong reduction", "note": "The deposit covers about 23,000 reagents; shown is an unselected part of those that have a named target and a result. In the full data, 75 (0.33%) got an active call. 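Raw plate signals without normalisation; calls rest on plate z-scores that were not deposited; ratio present for only 364 wells.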 Reagents against one gene are numbered here. No sequences are given here. The record does not give: the dose of the treatment."}
The opening 2 entries, ahead of the listing:
{"target gene": "Spn42Dd", "reagent no.": 1, "calcium entry signal, replicate 1": 2.33e7, "calcium entry signal, replicate 2": 2.51e7, "resting calcium signal, replicate 1": 1.01e7, "resting calcium signal, replicate 2": 1.20e7, "activity call": "inactive"}
{"target gene": "Spn42Dd", "reagent no.": 2, "calcium entry signal, replicate 1": 3.14e7, "calcium entry signal, replicate 2": 4.16e7, "resting calcium signal, replicate 1": 1.59e7, "resting calcium signal, replicate 2": 2.45e7, "activity call": "inactive"}

Results, from the first entry:
{"target gene": "Spn42Dd", "reagent no.": 1, "calcium entry signal, replicate 1": 2.33e7, "calcium entry signal, replicate 2": 2.51e7, "resting calcium signal, replicate 1": 1.01e7, "resting calcium signal, replicate 2": 1.20e7, "activity call": "inactive"}
{"target gene": "Spn42Dd", "reagent no.": 2, "calcium entry signal, replicate 1": 3.14e7, "calcium entry signal, replicate 2": 4.16e7, "resting calcium signal, replicate 1": 1.59e7, "resting calcium signal, replicate 2": 2.45e7, "activity call": "inactive"}
{"target gene": "CAH13", "reagent no.": 1, "calcium entry signal, replicate 1": 3.91e7, "calcium entry signal, replicate 2": 4.43e7, "resting calcium signal, replicate 1": 1.91e7, "resting calcium signal, replicate 2": 1.95e7, "activity call": "inactive"}
{"target gene": "alpha-Man-Ic", "reagent no.": 1, "calcium entry signal, replicate 1": 4.28e7, "calcium entry signal, replicate 2": 3.84e7, "resting calcium signal, replicate 1": 2.28e7, "resting calcium signal, replicate 2": 1.87e7, "activity call": "inactive"}
{"target gene": "CG18635", "reagent no.": 1, "calcium entry signal, replicate 1": 3.55e7, "calcium entry signal, replicate 2": 3.38e7, "resting calcium signal, replicate 1": 2.00e7, "resting calcium signal, replicate 2": 1.62e7, "activity call": "inactive"}
{"target gene": "CG11906", "reagent no.": 1, "calcium entry signal, replicate 1": 2.84e7, "calcium entry signal, replicate 2": 2.84e7, "resting calcium signal, replicate 1": 1.26e7, "resting calcium signal, replicate 2": 1.40e7, "activity call": "inactive"}
{"target gene": "Su(z)12", "reagent no.": 1, "calcium entry signal, replicate 1": 3.60e7, "calcium entry signal, replicate 2": 5.96e7, "resting calcium signal, replicate 1": 1.74e7, "resting calcium signal, replicate 2": 2.91e7, "activity call": "inactive"}
{"target gene": "LSm1", "reagent no.": 1, "calcium entry signal, replicate 1": 3.49e7, "calcium entry signal, replicate 2": 3.79e7, "resting calcium signal, replicate 1": 1.90e7, "resting calcium signal, replicate 2": 1.61e7, "activity call": "inactive"}
{"target gene": "CG30270", "reagent no.": 1, "calcium entry signal, replicate 1": 4.24e7, "calcium entry signal, replicate 2": 3.35e7, "resting calcium signal, replicate 1": 2.53e7, "resting calcium signal, replicate 2": 1.61e7, "activity call": "inactive"}
{"target gene": "Pu", "reagent no.": 1, "calcium entry signal, replicate 1": 2.97e7, "resting calcium signal, replicate 1": 1.65e7, "activity call": "inactive"}
{"target gene": "PH4alphaNE1", "reagent no.": 1, "calcium entry signal, replicate 1": 3.69e7, "calcium entry signal, replicate 2": 4.38e7, "resting calcium signal, replicate 1": 1.65e7, "resting calcium signal, replicate 2": 1.95e7, "activity call": "inactive"}
{"target gene": "Arc42", "reagent no.": 1, "calcium entry signal, replicate 1": 3.87e7, "calcium entry signal, replicate 2": 3.87e7, "resting calcium signal, replicate 1": 4.69e7, "resting calcium signal, replicate 2": 1.69e7, "activity call": "inactive"}
{"target gene": "Arc42", "reagent no.": 2, "calcium entry signal, replicate 1": 3.41e7, "calcium entry signal, replicate 2": 3.55e7, "resting calcium signal, replicate 1": 5.06e7, "resting calcium signal, replicate 2": 1.58e7, "activity call": "inactive"}
